Percent effect of library compounds

By UniProt entry, the sequences of proteins in these tests, tags left out. Residues count along the entry.
UniProt P9WNZ1, whole entry: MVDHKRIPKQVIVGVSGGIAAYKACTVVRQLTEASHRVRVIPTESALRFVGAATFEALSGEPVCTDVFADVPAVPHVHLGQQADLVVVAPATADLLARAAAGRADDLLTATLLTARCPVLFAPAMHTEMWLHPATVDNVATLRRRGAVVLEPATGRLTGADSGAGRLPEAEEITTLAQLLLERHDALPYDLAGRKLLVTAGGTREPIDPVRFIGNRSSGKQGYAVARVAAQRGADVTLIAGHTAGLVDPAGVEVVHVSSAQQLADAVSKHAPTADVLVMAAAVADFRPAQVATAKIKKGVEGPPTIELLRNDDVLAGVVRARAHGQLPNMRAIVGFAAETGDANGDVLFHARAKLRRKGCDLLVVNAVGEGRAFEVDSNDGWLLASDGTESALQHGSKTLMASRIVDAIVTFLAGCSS
UniProt I6X8D2, whole entry: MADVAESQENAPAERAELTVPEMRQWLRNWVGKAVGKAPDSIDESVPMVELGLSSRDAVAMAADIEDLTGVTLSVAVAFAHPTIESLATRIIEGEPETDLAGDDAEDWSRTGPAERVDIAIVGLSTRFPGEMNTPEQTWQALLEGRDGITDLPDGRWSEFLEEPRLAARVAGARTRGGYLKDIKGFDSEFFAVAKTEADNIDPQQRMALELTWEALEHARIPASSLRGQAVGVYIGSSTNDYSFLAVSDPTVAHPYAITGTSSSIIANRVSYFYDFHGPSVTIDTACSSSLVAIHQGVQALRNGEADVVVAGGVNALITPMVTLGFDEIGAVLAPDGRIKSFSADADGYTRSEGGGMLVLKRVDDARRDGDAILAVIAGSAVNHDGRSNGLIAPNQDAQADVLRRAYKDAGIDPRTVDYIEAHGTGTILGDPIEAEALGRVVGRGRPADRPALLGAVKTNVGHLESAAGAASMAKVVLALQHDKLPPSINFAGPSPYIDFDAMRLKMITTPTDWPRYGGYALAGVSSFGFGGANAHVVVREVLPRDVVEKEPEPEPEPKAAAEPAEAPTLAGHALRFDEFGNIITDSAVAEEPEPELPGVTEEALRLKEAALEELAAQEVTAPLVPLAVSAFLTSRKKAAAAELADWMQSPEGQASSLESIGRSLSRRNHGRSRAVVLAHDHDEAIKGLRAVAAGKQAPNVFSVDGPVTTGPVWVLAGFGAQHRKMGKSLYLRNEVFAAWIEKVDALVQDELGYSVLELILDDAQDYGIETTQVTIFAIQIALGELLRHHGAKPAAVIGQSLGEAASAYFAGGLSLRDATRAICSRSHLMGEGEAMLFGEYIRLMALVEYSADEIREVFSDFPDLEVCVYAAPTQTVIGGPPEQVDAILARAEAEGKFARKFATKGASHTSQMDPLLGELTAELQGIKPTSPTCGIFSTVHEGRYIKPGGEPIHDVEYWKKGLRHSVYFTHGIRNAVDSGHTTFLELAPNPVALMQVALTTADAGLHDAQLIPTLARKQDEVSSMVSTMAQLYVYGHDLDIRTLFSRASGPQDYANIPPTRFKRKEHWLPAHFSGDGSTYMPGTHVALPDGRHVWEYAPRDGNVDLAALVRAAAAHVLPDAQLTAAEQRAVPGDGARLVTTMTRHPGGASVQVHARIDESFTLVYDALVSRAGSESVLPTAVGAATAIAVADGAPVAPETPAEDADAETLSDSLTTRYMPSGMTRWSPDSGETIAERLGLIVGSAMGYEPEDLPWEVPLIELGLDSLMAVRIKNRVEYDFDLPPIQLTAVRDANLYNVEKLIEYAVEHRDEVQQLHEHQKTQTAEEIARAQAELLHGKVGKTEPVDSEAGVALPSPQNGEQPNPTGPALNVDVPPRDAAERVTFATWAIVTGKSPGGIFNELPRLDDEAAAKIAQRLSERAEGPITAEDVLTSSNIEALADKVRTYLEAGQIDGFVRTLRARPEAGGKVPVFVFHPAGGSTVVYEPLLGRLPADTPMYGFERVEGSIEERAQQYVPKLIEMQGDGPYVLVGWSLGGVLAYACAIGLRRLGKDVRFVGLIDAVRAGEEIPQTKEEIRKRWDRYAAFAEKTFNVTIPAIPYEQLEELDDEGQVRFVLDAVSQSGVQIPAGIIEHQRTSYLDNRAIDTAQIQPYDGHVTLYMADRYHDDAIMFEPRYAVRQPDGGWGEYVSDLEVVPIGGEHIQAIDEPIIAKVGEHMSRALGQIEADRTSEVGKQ
UniProt P9WPC5, whole entry: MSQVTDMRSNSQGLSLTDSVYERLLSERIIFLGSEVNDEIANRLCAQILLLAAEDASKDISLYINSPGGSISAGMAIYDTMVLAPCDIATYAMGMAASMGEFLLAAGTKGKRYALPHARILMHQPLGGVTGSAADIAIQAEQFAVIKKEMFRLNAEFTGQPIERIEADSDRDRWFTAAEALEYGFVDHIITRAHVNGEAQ
UniProt P9WPC3, whole entry partner: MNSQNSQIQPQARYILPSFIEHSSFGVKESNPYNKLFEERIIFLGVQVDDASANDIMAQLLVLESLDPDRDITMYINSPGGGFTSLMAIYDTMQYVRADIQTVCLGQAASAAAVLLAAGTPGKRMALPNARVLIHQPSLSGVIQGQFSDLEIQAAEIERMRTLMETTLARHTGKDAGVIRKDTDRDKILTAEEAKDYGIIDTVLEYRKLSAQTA
UniProt A4I591, 1-473: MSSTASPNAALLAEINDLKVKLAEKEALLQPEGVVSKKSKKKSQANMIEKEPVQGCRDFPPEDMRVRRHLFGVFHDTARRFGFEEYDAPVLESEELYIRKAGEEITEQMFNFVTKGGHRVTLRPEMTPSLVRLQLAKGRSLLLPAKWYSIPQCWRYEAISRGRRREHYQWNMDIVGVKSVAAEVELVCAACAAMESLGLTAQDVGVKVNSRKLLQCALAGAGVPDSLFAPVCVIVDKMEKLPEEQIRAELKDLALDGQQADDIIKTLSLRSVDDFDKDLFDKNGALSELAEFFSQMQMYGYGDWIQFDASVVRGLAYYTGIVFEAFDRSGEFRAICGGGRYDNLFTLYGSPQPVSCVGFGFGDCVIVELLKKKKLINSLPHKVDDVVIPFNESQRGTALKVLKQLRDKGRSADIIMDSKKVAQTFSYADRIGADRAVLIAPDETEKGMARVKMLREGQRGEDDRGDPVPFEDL
UniProt P9WFT3, whole entry: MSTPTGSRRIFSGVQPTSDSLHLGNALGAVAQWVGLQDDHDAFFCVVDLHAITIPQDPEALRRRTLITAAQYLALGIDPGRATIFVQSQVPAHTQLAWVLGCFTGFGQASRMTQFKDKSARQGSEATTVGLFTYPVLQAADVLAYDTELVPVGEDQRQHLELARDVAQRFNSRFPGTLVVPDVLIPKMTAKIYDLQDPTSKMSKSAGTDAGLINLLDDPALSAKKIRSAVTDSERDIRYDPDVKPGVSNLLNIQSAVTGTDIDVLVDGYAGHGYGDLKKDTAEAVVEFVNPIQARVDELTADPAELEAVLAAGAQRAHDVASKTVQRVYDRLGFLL

CoaBC: 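Coenzyme A biosynthesis protein CoaBC, Mycobacterium tuberculosis (UniProt P9WNZ1). Enzyme assay of CoaBC with a phosphate dye (Biomol Green) read at 650 nm. Tested at 30 µM. Direction is inferred from only a few compounds that gave an IC50; most scored high, so higher reads as stronger inhibition. Most strong results did not repeat in a second test. Of about 67,000 compounds tested this way, about 40 (0.06%) reached 50% or more in at least one test.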
Pks13 thioesterase: 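Polyketide synthase Pks13, Mycobacterium tuberculosis (UniProt I6X8D2). Enzyme assay of the thioesterase domain of polyketide synthase 13; the read-out is not stated. Concentration: 30 µM. Higher reads as stronger inhibition (inferred from which compounds were picked for retests). Size under these conditions: about 67,000 compounds, about 300 of them at 50% or above in at least one test.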
ClpP1P2: 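ClpP1P2, Mycobacterium tuberculosis (UniProt P9WPC5 and UniProt P9WPC3). Protease assay of ClpP1P2, read by the AMC dye that it sets free. Concentration: 50 µM. Direction is inferred from only a few compounds that gave an IC50; most scored high, so higher reads as stronger inhibition. Most other retested compounds had strongly negative values. About 69,000 compounds were tested under these conditions; 0.015% (about 10) showed 50% or more at least once.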
Toxoplasma: 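Assay of Toxoplasma gondii numbers, read through their beta-galactosidase reporter with a colour substrate. Tested at 10 µM. The record gives no direction; the compounds picked for IC50 retests had high values, so higher reads as fewer parasites. About 67,000 compounds were tested under these conditions; 0.38% (about 260) showed 50% or more at least once.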
LiHisRS: 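Enzyme assay of histidyl-tRNA synthetase; the read-out is not stated. Target: Histidine-tRNA ligase, Leishmania infantum (UniProt A4I591). Tested at 30 µM. Higher reads as stronger inhibition (inferred: compounds with an IC50 in retests scored well above the rest). The assay is labelled LdHisRS but filed under L. infantum. Of about 69,000 compounds tested this way, about 410 (0.6%) reached 50% or more in at least one test.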
MtTrpRS: 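Enzyme assay of tryptophanyl-tRNA synthetase; the read-out is not stated. Target: Tryptophan-tRNA ligase, Mycobacterium tuberculosis (UniProt P9WFT3). Tested at 10 µM. Higher most likely means stronger inhibition; the record gives no direction and few retests gave an IC50. Of about 65,000 compounds tested this way, about 64 (0.098%) reached 50% or more in at least one test.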

The filed quantity is “Percent Effect” (%). The controls that fix the scale are not given in the record; negative values are as filed. This is an unselected part of the compounds tested. A dash means the value is not listed here; it may have been measured.

| compound | CoaBC | Pks13 thioesterase | ClpP1P2 | Toxoplasma | LiHisRS | MtTrpRS |
|---|---|---|---|---|---|---|
| `CC(=O)NCC(=O)N1CC[C@H](OCC2CC2)[C@@H]1Cc1cccnc1` | 3.426 | -8.416 | 2.825 | - | 5.66 | -1.994 |
| `CCC(=O)N1CCN(c2cc(N(C)C)cnn2)CC1` | 5.285 | -31.91 | 14.45 | -7.465 | 0 | -5.091 |
| `CCOc1cccc(CNC2CCCN(Cc3noc(C)n3)C2)c1` (stereo unspecified) | 1.419 | -5.975 | -9.001 | -0.5515 | 12.17 | -5.161 |
| `COc1cc(CNCC(O)c2cccc(F)c2)cc2c1OCO2.Cl` (stereo unspecified) | - | - | - | 1.436 | - | - |
| `CCN(CC(F)(F)F)C(=O)C1CCCN(Cc2ccccn2)C1` (stereo unspecified) | 0.4878 | -17.33 | 6.038 | -1.731 | 15 | -1.868 |
| `COC1CCN(C(=O)Nc2cc(C(F)(F)F)c[nH]c2=O)CC1` | 2.151 | 2.279 | -14.55 | -4.084 | 11.54 | 2.03 |
| `CC1CCCN(CC(=O)N2CCC(c3ncc4c(n3)CCNC4)CC2)C1` (stereo unspecified) | 5.181 | -24.53 | 1.023 | -1.83 | 2.19 | -3.877 |
| `Cc1nc2c(c(N(C)C)n1)CCN(C(=O)c1sccc1S(N)(=O)=O)C2` | -1.79 | -6.313 | -7.361 | 10.12 | 13.11 | -1.89 |
| `COC(C)(C)CNC(=O)N1CCCC1c1c(C)n[nH]c1C` (stereo unspecified) | 1.139 | -2.015 | 0.8069 | 0.7061 | 3.614 | 1.903 |
| `Cc1cc(OCC(N)=O)ccc1NC(=O)C(C)Cc1ccccc1F` (stereo unspecified) | 2.913 | -14.03 | -16.38 | -1.875 | 12.05 | -1.255 |
| `CNc1cncc(C2CCCN2C(=O)CCn2ccnc2)n1` (stereo unspecified) | 5.742 | 0.9198 | -93.77 | 10.08 | 8.633 | -1.302 |
| `CN(Cc1coc(-c2ccccc2)n1)CC1CCCN1c1cccnn1` (stereo unspecified) | -32.21 | -5.512 | 1.915 | 1.571 | 20.75 | -0.4946 |
| `CC(O)CNCc1ccccc1C(F)(F)F.Cl` (stereo unspecified) | - | - | - | -4.642 | - | - |
| `O=C(C1CCOCC1)N1C[C@H]2CCC[C@@]2(COCc2ccccn2)C1` | 3.837 | - | -2.979 | - | 9.901 | - |
| `Cc1nc(CNC(=O)CCN2CCN(c3ccccn3)CC2)oc1C` | -3.566 | - | -4.099 | 6.077 | -9.524 | 13.12 |
| `CCNc1ncc(C(=O)N2Cc3nc(C)[nH]c(=O)c3C2)cn1` | 4.126 | -5.282 | -11.93 | 1.507 | -35.71 | 0.144 |
| `O=C1NC2(CCNCC2)CC1c1ccccc1` (stereo unspecified) | 2.101 | -15.01 | 21.48 | - | 7 | 3.867 |
| `Cc1cc(CCC(=O)N(C)C)nc(C2CCCCN2)n1.Cl.Cl` (stereo unspecified) | - | - | - | 1.829 | - | - |
| `COCCN(C(=O)c1cc(-c2ccc(C)s2)[nH]n1)C1CC1` | -1.768 | - | 12.1 | -1.872 | 16.67 | -0.9336 |
| `CN1CCN(C(=O)CCC(=O)c2cccs2)Cc2ccccc21` | -8.468 | -21.8 | -2.494 | 4.991 | 10.53 | -9.875 |
| `Cc1ccsc1CN(C)c1cc(N2CCCC2CO)ncn1` (stereo unspecified) | -0.4464 | -14.71 | -6.709 | 6.059 | 5.208 | -4.85 |
| `O=C(O)c1sccc1Oc1ccc(NC(=O)C2CC2)cc1` | -1.611 | -18.36 | -17.41 | 8.623 | 16.67 | 8.292 |
| `CCC(CC)C(=O)c1c[nH]c(C(=O)N2CCN(c3ccccc3)CC2)c1` | -2.301 | -12.57 | -9.134 | -10 | 10.42 | -2.716 |
| `COc1cc(C(=O)Nc2nc(C)no2)cc(OC)c1Br` | 3.675 | -32.6 | -12.2 | 34.95 | 6.78 | 23.15 |
| `O=C(CNC1CCc2ncnn2C1)NCCc1cccs1` (stereo unspecified) | 3.165 | -12.29 | 4.328 | -0.9451 | 19.48 | 1.791 |
| `Cl.Cl.O=C(NCc1cncc2c1CCN(Cc1cccc(F)c1)C2)C1CC1` | - | - | - | 5.436 | - | - |
| `CN(C)c1nc2c(c(NCc3nnc4n3CCCCC4)n1)CCNC2` | 16.05 | -9.351 | -54.87 | -9.893 | 19.58 | -8.301 |
| `[H][C@@]12C[C@H](C(=O)N(C)C)[C@@]([H])(CN(c3ncc(C)cn3)C1)O2` | - | - | - | 3.205 | - | - |
| `O=C(CCc1cscn1)N1CCCC1c1noc(C2CC2)n1` (stereo unspecified) | 3.44 | - | 9.754 | 6.031 | 33.33 | -3.834 |

The first 2 entries again:

* CC(=O)NCC(=O)N1CC[C@H](OCC2CC2)[C@@H]1Cc1cccnc1 | CoaBC: 3.426%; Pks13 thioesterase: -8.416%; ClpP1P2: 2.825%; LiHisRS: 5.66%; MtTrpRS: -1.994%
* CCC(=O)N1CCN(c2cc(N(C)C)cnn2)CC1 | CoaBC: 5.285%; Pks13 thioesterase: -31.91%; ClpP1P2: 14.45%; Toxoplasma: -7.465%; LiHisRS: 0%; MtTrpRS: -5.091%

The values are deposited in ChEMBL (CHEMBL3988442, “University of Dundee, Small-Polar-MMV Screening Library” (2021)).